Experimental data as given in article PMC6477152 (2019).
Results are given in words; binding and its absence hold for the method and conditions named. Binding seen in cells or lysates may run through a third protein. Some entries that bind do so weakly or less than the wild type. For some of these results: Sequences can lack the tags named with a protein. Each block holds one molecule with its values, some of them ahead of it.

Chains of the proteins cited; added tags and fusions are not shown. Lines headed by an entry give the natural chain unless they say otherwise; changes in a name come on top. A line that says so, or that is headed by a name, gives the form on record, which may keep a tag or linker. Residues count along the entry.
UniProt A7MCY6: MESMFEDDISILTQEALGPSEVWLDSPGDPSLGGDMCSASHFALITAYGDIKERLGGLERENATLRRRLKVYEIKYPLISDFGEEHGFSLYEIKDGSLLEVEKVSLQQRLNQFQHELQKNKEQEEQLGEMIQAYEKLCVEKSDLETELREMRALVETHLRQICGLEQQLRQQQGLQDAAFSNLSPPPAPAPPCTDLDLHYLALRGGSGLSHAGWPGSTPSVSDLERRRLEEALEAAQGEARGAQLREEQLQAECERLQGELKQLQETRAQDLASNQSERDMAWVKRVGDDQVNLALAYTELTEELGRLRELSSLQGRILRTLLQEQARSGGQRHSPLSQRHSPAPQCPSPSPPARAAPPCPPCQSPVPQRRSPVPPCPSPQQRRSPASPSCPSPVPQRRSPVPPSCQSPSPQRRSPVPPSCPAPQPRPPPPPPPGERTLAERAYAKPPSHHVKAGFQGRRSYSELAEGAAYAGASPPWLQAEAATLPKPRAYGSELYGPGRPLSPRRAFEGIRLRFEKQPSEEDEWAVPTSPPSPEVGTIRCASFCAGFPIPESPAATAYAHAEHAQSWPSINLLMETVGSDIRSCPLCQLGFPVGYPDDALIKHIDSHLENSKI
GST:SINTBADaa5-85: residues 5-85 of A7MCY6
GST-FIP200ΔN1115 (Q8TDY2, residues 1116-1594): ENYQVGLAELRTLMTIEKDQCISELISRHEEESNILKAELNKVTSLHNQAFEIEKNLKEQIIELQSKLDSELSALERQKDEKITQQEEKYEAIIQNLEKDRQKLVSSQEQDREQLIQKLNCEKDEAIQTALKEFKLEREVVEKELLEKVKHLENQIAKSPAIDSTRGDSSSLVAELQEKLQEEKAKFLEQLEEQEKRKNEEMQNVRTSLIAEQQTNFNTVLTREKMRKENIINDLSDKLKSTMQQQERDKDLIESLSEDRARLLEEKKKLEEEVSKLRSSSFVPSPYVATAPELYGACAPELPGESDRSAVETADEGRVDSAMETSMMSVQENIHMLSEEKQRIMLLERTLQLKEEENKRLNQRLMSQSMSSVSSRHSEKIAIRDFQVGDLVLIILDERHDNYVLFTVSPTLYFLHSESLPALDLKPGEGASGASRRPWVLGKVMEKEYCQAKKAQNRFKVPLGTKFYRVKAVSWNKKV
FIP200 ΔN1115 T1465A-Luciferase (Q8TDY2, form named): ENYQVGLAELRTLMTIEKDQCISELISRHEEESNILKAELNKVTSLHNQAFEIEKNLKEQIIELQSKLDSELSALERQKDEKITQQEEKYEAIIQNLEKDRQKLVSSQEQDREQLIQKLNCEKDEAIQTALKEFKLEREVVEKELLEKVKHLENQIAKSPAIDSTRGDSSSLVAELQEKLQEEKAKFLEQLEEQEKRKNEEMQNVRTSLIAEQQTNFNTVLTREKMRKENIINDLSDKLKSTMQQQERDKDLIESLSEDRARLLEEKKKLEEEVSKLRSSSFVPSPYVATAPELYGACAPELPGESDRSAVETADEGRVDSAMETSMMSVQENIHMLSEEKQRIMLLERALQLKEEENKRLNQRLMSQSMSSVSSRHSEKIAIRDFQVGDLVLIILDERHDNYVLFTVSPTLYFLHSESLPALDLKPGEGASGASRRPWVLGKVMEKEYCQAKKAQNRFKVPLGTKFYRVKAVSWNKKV
FIP200 ΔN1115 L1462A-Luciferase (Q8TDY2, form named): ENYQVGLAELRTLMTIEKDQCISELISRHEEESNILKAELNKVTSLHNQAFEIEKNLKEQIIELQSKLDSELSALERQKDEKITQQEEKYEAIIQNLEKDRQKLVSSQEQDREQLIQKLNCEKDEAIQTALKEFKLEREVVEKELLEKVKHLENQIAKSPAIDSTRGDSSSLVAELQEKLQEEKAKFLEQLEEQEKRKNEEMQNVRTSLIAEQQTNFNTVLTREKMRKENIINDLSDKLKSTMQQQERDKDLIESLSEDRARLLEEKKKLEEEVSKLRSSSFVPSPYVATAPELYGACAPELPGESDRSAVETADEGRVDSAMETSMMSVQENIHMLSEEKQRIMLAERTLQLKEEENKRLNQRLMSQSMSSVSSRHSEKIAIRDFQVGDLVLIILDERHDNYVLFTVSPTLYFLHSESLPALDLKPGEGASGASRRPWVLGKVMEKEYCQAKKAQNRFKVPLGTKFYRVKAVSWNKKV
FIP200 ΔN1115 Q1467A-Luciferase (Q8TDY2, form named): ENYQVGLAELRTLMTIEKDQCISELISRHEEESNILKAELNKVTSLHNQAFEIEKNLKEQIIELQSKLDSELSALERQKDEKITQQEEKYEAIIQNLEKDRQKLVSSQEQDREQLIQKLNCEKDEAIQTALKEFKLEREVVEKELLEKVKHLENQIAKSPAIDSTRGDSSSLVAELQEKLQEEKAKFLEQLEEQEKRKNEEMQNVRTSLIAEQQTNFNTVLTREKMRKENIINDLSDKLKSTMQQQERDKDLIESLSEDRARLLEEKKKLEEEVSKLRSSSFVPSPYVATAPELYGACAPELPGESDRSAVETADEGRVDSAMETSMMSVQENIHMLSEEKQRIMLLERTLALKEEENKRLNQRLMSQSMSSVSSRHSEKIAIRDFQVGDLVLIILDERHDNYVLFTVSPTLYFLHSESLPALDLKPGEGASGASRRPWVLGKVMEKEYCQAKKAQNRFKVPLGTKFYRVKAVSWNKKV
FIP200 ΔN1115 V1576S-Luciferase (Q8TDY2, form named): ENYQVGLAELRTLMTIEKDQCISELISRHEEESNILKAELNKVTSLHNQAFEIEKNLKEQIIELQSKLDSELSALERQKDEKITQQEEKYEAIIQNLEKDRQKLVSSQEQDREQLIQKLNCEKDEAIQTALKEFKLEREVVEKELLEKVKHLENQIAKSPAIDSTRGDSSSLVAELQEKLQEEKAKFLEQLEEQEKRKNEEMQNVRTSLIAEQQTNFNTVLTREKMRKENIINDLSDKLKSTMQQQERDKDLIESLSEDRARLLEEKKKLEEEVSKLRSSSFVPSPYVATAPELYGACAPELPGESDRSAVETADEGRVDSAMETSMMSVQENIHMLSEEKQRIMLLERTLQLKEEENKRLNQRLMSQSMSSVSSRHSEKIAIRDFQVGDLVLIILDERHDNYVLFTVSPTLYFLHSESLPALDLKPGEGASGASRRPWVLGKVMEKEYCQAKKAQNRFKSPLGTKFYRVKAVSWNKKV
FIP200 ΔN1115 L1468A-Luciferase (Q8TDY2, form named): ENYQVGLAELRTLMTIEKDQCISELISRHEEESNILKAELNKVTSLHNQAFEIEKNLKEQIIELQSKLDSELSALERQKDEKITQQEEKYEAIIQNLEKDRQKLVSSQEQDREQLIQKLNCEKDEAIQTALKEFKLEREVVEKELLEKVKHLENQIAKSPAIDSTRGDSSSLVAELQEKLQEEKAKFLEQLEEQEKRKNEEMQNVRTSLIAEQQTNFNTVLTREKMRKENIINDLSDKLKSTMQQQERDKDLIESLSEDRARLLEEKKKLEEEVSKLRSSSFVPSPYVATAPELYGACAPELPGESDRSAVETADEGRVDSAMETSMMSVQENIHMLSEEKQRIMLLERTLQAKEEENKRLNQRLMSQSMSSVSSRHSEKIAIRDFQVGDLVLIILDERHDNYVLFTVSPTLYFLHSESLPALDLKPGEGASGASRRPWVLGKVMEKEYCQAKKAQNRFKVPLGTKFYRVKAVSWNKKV
FIP200 ΔN1115 F1574S-Luciferase (Q8TDY2, form named): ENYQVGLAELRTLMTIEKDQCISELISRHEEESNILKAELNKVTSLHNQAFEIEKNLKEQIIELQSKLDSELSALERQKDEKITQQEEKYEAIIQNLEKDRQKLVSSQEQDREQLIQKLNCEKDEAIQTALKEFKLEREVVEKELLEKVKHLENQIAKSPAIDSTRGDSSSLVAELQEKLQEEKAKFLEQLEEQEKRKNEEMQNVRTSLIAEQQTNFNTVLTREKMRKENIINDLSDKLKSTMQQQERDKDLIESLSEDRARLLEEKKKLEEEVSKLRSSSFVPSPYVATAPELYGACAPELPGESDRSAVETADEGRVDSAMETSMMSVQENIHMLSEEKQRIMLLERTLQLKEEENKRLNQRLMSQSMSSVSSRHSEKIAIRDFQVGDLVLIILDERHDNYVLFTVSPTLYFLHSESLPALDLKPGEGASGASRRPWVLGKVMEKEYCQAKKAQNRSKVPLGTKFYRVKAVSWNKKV
FIP200 ΔN1115 N1572S-Luciferase (Q8TDY2, form named): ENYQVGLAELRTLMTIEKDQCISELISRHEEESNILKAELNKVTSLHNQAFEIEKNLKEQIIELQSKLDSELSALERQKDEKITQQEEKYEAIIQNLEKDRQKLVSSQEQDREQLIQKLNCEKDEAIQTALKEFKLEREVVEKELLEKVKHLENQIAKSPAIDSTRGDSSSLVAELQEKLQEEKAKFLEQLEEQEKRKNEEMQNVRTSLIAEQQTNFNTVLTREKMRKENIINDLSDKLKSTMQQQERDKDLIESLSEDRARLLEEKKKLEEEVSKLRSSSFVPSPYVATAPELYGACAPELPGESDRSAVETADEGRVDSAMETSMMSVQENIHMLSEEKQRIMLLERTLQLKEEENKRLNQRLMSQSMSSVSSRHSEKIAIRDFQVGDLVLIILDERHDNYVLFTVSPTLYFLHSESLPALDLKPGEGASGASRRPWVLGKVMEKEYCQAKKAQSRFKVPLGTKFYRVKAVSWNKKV
FIP200 ΔN1115 E1463A-Luciferase (Q8TDY2, form named): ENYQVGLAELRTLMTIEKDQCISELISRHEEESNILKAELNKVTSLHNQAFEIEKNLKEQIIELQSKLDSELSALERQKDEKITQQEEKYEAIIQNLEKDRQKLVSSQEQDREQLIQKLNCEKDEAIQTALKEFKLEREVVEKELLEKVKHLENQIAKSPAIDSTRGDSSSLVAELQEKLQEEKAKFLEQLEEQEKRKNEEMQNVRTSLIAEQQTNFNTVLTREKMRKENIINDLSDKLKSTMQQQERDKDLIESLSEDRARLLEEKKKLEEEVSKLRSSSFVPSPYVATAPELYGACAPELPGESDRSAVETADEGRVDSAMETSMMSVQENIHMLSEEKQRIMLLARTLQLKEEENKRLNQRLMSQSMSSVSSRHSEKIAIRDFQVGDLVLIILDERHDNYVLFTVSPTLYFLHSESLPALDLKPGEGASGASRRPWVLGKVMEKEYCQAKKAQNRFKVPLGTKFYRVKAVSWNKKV
FIP200 ΔN1115 R1464A-Luciferase (Q8TDY2, form named): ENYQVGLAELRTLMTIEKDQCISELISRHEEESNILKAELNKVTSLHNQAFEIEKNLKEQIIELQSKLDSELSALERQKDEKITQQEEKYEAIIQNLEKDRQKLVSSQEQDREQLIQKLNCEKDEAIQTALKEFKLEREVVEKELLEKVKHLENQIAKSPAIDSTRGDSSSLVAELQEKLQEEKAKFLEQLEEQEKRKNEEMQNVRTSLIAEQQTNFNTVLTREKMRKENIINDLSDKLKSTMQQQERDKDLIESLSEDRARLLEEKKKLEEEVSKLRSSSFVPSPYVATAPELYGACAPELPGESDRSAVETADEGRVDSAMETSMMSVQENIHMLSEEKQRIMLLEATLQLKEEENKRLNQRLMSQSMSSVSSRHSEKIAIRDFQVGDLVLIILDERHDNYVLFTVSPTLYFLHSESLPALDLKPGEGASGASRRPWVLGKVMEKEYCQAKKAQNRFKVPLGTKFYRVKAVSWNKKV
FIP200 ΔN1115 L1466A-Luciferase (Q8TDY2, form named): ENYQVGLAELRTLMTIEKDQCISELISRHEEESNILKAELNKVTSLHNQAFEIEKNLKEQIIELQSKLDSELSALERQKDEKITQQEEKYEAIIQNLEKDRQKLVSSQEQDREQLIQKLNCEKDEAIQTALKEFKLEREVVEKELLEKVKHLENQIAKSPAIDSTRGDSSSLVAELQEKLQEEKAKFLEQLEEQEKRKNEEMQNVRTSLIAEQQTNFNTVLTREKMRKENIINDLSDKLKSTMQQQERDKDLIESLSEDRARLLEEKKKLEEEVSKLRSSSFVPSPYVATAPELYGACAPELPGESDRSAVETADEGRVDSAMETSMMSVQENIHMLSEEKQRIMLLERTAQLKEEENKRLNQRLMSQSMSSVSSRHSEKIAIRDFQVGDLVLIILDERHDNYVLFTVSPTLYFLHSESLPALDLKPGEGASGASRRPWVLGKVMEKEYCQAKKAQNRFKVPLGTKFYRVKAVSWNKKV
UniProt Q9H6S1: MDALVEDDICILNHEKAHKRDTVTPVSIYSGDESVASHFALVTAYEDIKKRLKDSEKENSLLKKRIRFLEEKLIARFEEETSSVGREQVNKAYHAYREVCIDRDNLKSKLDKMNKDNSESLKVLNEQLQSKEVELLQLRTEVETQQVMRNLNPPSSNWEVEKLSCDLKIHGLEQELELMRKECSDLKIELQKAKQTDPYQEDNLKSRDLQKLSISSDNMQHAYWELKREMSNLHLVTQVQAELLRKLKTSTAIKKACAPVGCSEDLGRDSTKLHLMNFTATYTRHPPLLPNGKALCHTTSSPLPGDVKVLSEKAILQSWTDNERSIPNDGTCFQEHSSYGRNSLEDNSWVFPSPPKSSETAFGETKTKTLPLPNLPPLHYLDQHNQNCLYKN
GST:NAP1aa5–75: residues 5-75 of Q9H6S1

How the values were obtained:
[1] = target: GST:SINTBADaa5-85 (human) (UniProt A7MCY6); test: pull-down; GST-based LUMIER: GST fusion from E. coli immobilised on glutathione 4b Sepharose beads, incubated with lysate of transfected HEK293ET cells expressing the Renilla luciferase-tagged protein, 2 h at 4°C, four washes, eluted with 20 mM glutathione, luciferase activity as fold binding against GST only; only the target purified
[2] = target: GST-FIP200ΔN1115 (human) (UniProt Q8TDY2); test: pull-down; GST-based LUMIER with GST-FIP200ΔN1115 and Luciferase:NDP52 in the presence of titrated amounts of bacterial lysates containing SINTBADaa5-85 or NAP1aa5-75; pairs with the GST bait; only the target purified
[3] = target: T1, Luciferase:NDP52 (human) (UniProt Q13137); test: pull-down; same experiment as a5; pair of the titrated fragment in bacterial lysate with Luciferase:NDP52, read as luciferase brought to GST-FIP200ΔN1115 beads (bell-shaped curves)
T1 sequence: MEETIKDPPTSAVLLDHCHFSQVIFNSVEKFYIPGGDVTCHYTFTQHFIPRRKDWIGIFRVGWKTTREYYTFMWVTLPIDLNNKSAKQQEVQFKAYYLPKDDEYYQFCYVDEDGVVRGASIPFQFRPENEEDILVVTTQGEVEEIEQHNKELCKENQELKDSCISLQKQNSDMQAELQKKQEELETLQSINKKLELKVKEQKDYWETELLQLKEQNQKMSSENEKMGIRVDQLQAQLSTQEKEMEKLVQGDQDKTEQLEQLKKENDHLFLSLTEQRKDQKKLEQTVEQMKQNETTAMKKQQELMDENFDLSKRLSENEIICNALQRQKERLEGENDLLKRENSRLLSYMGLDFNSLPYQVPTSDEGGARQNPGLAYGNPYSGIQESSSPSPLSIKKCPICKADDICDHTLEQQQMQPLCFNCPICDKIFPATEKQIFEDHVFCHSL

[4] = target: T2, Luciferase-NDP52 A119Q (human) (UniProt Q13137); test: as above
T2 sequence: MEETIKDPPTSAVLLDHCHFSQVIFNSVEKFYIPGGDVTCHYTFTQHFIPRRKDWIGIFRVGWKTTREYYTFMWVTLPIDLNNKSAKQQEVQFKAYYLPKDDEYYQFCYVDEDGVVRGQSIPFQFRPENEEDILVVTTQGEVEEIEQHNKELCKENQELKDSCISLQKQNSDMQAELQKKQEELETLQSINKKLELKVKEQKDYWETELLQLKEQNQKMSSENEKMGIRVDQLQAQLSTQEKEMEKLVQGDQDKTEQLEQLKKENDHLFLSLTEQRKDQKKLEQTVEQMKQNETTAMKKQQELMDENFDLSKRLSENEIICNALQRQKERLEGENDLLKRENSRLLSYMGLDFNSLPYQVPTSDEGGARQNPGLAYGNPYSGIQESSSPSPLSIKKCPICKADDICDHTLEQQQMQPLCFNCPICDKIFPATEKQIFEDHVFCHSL

[5] = target: GST-FIP200ΔN1115 (human) (UniProt Q8TDY2); test: pull-down; GST-based LUMIER: GST fusion from E. coli immobilised on glutathione 4b Sepharose beads, incubated with lysate of transfected HEK293ET cells expressing the Renilla luciferase-tagged protein, 2 h at 4°C, four washes, eluted with 20 mM glutathione, luciferase activity as fold binding against GST only; only the target purified
[6] = target: GST:NAP1aa5–75 (human) (UniProt Q9H6S1); test: as above
[7] = target: FLAG-NAP1 (HEK293ET) (human) (UniProt Q9H6S1); test: co-IP; FLAG-based LUMIER: FLAG and Renilla luciferase fusions cotransfected into HEK293ET cells, FLAG protein immobilised on anti-FLAG M2 agarose 2 h at 4°C (20 mM Tris pH7.4, 150 mM NaCl, 0.1% Triton X-100, 5% glycerol), eluted with FLAG peptide, luciferase as fold binding against FLAG-GFP
[8] = target: FLAG-SINTBAD (HEK293ET) (human) (UniProt A7MCY6); test: as above

binding [1]: binds
Molecule: FIP200 ΔN1115 T1465A-Luciferase (from UniProt Q8TDY2 1116-1594) (domain or fragment)

binding [2]: binds | binding [3]: binds | binding [4]: no binding
Molecule: NAP1aa5-75 (bacterial lysate) (from UniProt Q9H6S1 5-75) (domain or fragment)

binding [1]: binds
Molecule: FIP200 ΔN1115 L1468A-Luciferase (from UniProt Q8TDY2 1116-1594) (domain or fragment)

binding [1]: no binding | binding [6]: no binding
Molecule: FIP200 ΔN1115 N1572S-Luciferase (from UniProt Q8TDY2 1116-1594) (domain or fragment)

binding [1]: binds
Molecule: FIP200 ΔN1115 E1463A-Luciferase (from UniProt Q8TDY2 1116-1594) (domain or fragment)

binding [1]: binds | binding [6]: binds
Molecule: FIP200ΔN1115:Luciferase (from UniProt Q8TDY2 1116-1594) (domain or fragment)

binding [5]: binds
Molecule: Luciferase-tagged SINTBAD (from UniProt A7MCY6 1-615)

binding [1]: binds
Molecule: FIP200 ΔN1115 L1466A-Luciferase (from UniProt Q8TDY2 1116-1594) (domain or fragment)

binding [5]: no binding
Molecule: Luciferase-SINTBAD ΔN15 (from UniProt A7MCY6 16-615) (domain or fragment)

binding [7]: binds | binding [8]: binds
B1: Luciferase:NDP52 (protein, UniProt Q13137 1-446)
chain: MEETIKDPPTSAVLLDHCHFSQVIFNSVEKFYIPGGDVTCHYTFTQHFIPRRKDWIGIFRVGWKTTREYYTFMWVTLPIDLNNKSAKQQEVQFKAYYLPKDDEYYQFCYVDEDGVVRGASIPFQFRPENEEDILVVTTQGEVEEIEQHNKELCKENQELKDSCISLQKQNSDMQAELQKKQEELETLQSINKKLELKVKEQKDYWETELLQLKEQNQKMSSENEKMGIRVDQLQAQLSTQEKEMEKLVQGDQDKTEQLEQLKKENDHLFLSLTEQRKDQKKLEQTVEQMKQNETTAMKKQQELMDENFDLSKRLSENEIICNALQRQKERLEGENDLLKRENSRLLSYMGLDFNSLPYQVPTSDEGGARQNPGLAYGNPYSGIQESSSPSPLSIKKCPICKADDICDHTLEQQQMQPLCFNCPICDKIFPATEKQIFEDHVFCHSL

binding [7]: no binding | binding [8]: no binding
B5: Luciferase-NDP52 A119Q (protein, UniProt Q13137 1-446)
chain: MEETIKDPPTSAVLLDHCHFSQVIFNSVEKFYIPGGDVTCHYTFTQHFIPRRKDWIGIFRVGWKTTREYYTFMWVTLPIDLNNKSAKQQEVQFKAYYLPKDDEYYQFCYVDEDGVVRGQSIPFQFRPENEEDILVVTTQGEVEEIEQHNKELCKENQELKDSCISLQKQNSDMQAELQKKQEELETLQSINKKLELKVKEQKDYWETELLQLKEQNQKMSSENEKMGIRVDQLQAQLSTQEKEMEKLVQGDQDKTEQLEQLKKENDHLFLSLTEQRKDQKKLEQTVEQMKQNETTAMKKQQELMDENFDLSKRLSENEIICNALQRQKERLEGENDLLKRENSRLLSYMGLDFNSLPYQVPTSDEGGARQNPGLAYGNPYSGIQESSSPSPLSIKKCPICKADDICDHTLEQQQMQPLCFNCPICDKIFPATEKQIFEDHVFCHSL

The next lines start with the molecule.

Molecule: Luciferase-SINTBAD ΔN5 (from UniProt A7MCY6 6-615) (domain or fragment)
binding [5]: binds

Molecule: FIP200 ΔN1115 L1462A-Luciferase (from UniProt Q8TDY2 1116-1594) (domain or fragment)
binding [1]: binds

Molecule: FIP200 ΔN1115 Q1467A-Luciferase (from UniProt Q8TDY2 1116-1594) (domain or fragment)
binding [1]: binds

Molecule: FIP200 ΔN1115 V1576S-Luciferase (from UniProt Q8TDY2 1116-1594) (domain or fragment)
binding [1]: no binding | binding [6]: no binding

Molecule: FIP200 ΔN1115 F1574S-Luciferase (from UniProt Q8TDY2 1116-1594) (domain or fragment)
binding [1]: no binding | binding [6]: no binding

Molecule: SINTBADaa5-85 (bacterial lysate) (from UniProt A7MCY6 5-85) (domain or fragment)
binding [2]: binds | binding [3]: binds | binding [4]: no binding

Molecule: FIP200 ΔN1115 R1464A-Luciferase (from UniProt Q8TDY2 1116-1594) (domain or fragment)
binding [1]: binds

B2: Luciferase-NDP52 Y70H (protein, UniProt Q13137 1-446)
chain: MEETIKDPPTSAVLLDHCHFSQVIFNSVEKFYIPGGDVTCHYTFTQHFIPRRKDWIGIFRVGWKTTREYHTFMWVTLPIDLNNKSAKQQEVQFKAYYLPKDDEYYQFCYVDEDGVVRGASIPFQFRPENEEDILVVTTQGEVEEIEQHNKELCKENQELKDSCISLQKQNSDMQAELQKKQEELETLQSINKKLELKVKEQKDYWETELLQLKEQNQKMSSENEKMGIRVDQLQAQLSTQEKEMEKLVQGDQDKTEQLEQLKKENDHLFLSLTEQRKDQKKLEQTVEQMKQNETTAMKKQQELMDENFDLSKRLSENEIICNALQRQKERLEGENDLLKRENSRLLSYMGLDFNSLPYQVPTSDEGGARQNPGLAYGNPYSGIQESSSPSPLSIKKCPICKADDICDHTLEQQQMQPLCFNCPICDKIFPATEKQIFEDHVFCHSL
binding [7]: binds | binding [8]: binds

B3: Luciferase-NDP52 I24N (protein, UniProt Q13137 1-446)
chain: MEETIKDPPTSAVLLDHCHFSQVNFNSVEKFYIPGGDVTCHYTFTQHFIPRRKDWIGIFRVGWKTTREYYTFMWVTLPIDLNNKSAKQQEVQFKAYYLPKDDEYYQFCYVDEDGVVRGASIPFQFRPENEEDILVVTTQGEVEEIEQHNKELCKENQELKDSCISLQKQNSDMQAELQKKQEELETLQSINKKLELKVKEQKDYWETELLQLKEQNQKMSSENEKMGIRVDQLQAQLSTQEKEMEKLVQGDQDKTEQLEQLKKENDHLFLSLTEQRKDQKKLEQTVEQMKQNETTAMKKQQELMDENFDLSKRLSENEIICNALQRQKERLEGENDLLKRENSRLLSYMGLDFNSLPYQVPTSDEGGARQNPGLAYGNPYSGIQESSSPSPLSIKKCPICKADDICDHTLEQQQMQPLCFNCPICDKIFPATEKQIFEDHVFCHSL
binding [7]: binds | binding [8]: binds

B4: Luciferase-NDP52 Y96S (protein, UniProt Q13137 1-446)
chain: MEETIKDPPTSAVLLDHCHFSQVIFNSVEKFYIPGGDVTCHYTFTQHFIPRRKDWIGIFRVGWKTTREYYTFMWVTLPIDLNNKSAKQQEVQFKASYLPKDDEYYQFCYVDEDGVVRGASIPFQFRPENEEDILVVTTQGEVEEIEQHNKELCKENQELKDSCISLQKQNSDMQAELQKKQEELETLQSINKKLELKVKEQKDYWETELLQLKEQNQKMSSENEKMGIRVDQLQAQLSTQEKEMEKLVQGDQDKTEQLEQLKKENDHLFLSLTEQRKDQKKLEQTVEQMKQNETTAMKKQQELMDENFDLSKRLSENEIICNALQRQKERLEGENDLLKRENSRLLSYMGLDFNSLPYQVPTSDEGGARQNPGLAYGNPYSGIQESSSPSPLSIKKCPICKADDICDHTLEQQQMQPLCFNCPICDKIFPATEKQIFEDHVFCHSL
binding [7]: binds | binding [8]: binds
